39 targets from the supplement of paper PMC12067093, “Discovery and optimisation of a covalent ligand for TRIM25 and its application to targeted protein ubiquitination” (Chemical Science, 2025) can be followed below.

The list shows a part of the results.
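Also: competitive profiling in live THP-1 cells: cysteine peptides tagged with an iodoacetamide desthiobiotin (IA-DTB) probe, intensity after compound treatment relative to DMSO-treated cells.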

Compound in this assay: Cc1cc(ccc1-c1ccccc1)C(=O)N1CCCN(CC1)C(=O)CCl [compound 10]
The experiment in a line: probe-labelled cysteine peptide fold change vs DMSO (competition) (log2 fold change); higher = less target engagement (more negative = stronger competition). Conditions: 10 µM; THP-1; incubation time: 4 h.
With PDXK_O00764_5_MEEECR (UniProt O00764), the “probe-labelled cysteine peptide fold change” value came to 0.11.
On to “PDLIM7_Q9NR12_367+370_MTWHVHCFTCAACK (UniProt Q9NR12)”, for which the “probe-labelled cysteine peptide fold change” value worked out at 0.013.
“PAXIP1_Q6ZW49_1029_QNSSLSEIILISCENDLHLCR (UniProt Q6ZW49)”: the “probe-labelled cysteine peptide fold change” value is -0.00198.
The result for “PDHA1_P08559_273_FAAAYCR (UniProt P08559)” reads 0.0385; that for “PDIA5_Q14554_465_NQDLCQQEAVK (UniProt Q14554)”, -0.225; that for “PCYOX1L_Q8NBM8_250_LVCSGLLK (UniProt Q8NBM8)”, -0.246.
For “PDLIM2_Q96JY6_289_CSTSIANQAVR (UniProt Q96JY6)”, the “probe-labelled cysteine peptide fold change” value amounted to 0.11.
In the case of “PDCD11_Q14690_535_LPVITCYADAKPGLQTHGFIIR (UniProt Q14690)” it was -0.0372; in that of “PDS5A_Q29RF7_1079+1084_LYTVCDVALCVINSK (UniProt Q29RF7)”, 0.0416; in that of “PATZ1_Q9HBE1_297_EAGILPCGLCGK (UniProt Q9HBE1)”, 0.0467.
Consider “PDE3B_Q13370_475_RPHQEFGISSQGCYLNGPFNSNLLTIPK (UniProt Q13370)”, for which the “probe-labelled cysteine peptide fold change” value is -0.322.
In the case of “PDCD2L_Q9BRP1_100_SQCLQVPER (UniProt Q9BRP1)” it was -0.000226.
The result for “PDE1A_P54750_406_EAELGLPFSPLCDR (UniProt P54750)” reads -0.0928.
In the case of “PDPR_Q8NCN5_85_FCAGILSTAR (UniProt Q8NCN5)” it was -0.0294; in that of “PCM1_Q15154_1616_EHMDEVCSSQLLTSVRR (UniProt Q15154)”, 0.136; in that of “PDS5A_Q29RF7_92_LLVACCLADIFR (UniProt Q29RF7)”, 0.0477.
Take “PCGF5_Q86SE9_42+53_TCIVQHFEDSNDCPR (UniProt Q86SE9)”: the “probe-labelled cysteine peptide fold change” value is -0.044.
Regarding “PCID2_Q5JVF3_83_CQTVIVQSFLR (UniProt Q5JVF3)”, the “probe-labelled cysteine peptide fold change” value was 0.134.
Regarding “PATZ1_Q9HBE1_463_SHLACHEDK (UniProt Q9HBE1)”, the “probe-labelled cysteine peptide fold change” value was -0.0133.
Take “PDLIM1_O00151_283_HPECYVCTDCGTNLK (UniProt O00151)”: the “probe-labelled cysteine peptide fold change” value is -0.0359.
As for “PCCA_P05165_398_INGWAVECR (UniProt P05165)”, the “probe-labelled cysteine peptide fold change” value came out at 0.181.
In the case of “PEBP1_P30086_133_CDEPILSNR (UniProt P30086)” it was -0.0287; in that of “PDHA1_P08559_261_VDGMDILCVR (UniProt P08559)”, 0.0657.
In the case of “PDLIM1_O00151_73_GCTDNLTLTVAR (UniProt O00151)” it was 0.00437; in that of “PCID2_Q5JVF3_152_VCASDTR (UniProt Q5JVF3)”, 0.19; in that of “PDCD11_Q14690_1754_ALECLPSK (UniProt Q14690)”, 0.00256.
In the case of “PAXBP1_Q9Y5B6_457_GYVQDLLECFSEK (UniProt Q9Y5B6)” it was 0.252.
For the target “PCCB_P05166_448_HLCGDTNYAWPTAEIAVMGAK (UniProt P05166)”, the “probe-labelled cysteine peptide fold change” value is -0.00636.
The result for “PDLIM7_Q9NR12_370_MTWHVHCFTCAACK (UniProt Q9NR12)” reads 0.00418.
The result for “PDHA1_P08559_261_GDFIPGLRVDGMDILCVR (UniProt P08559)” reads -0.0624; that for “PDCD6IP_Q8WUM4_40_FIQQTYPSGGEEQAQYCR (UniProt Q8WUM4)”, 0.232; that for “PDE12_Q6L8Q7_268_ELESVCVVEAGPGTCTFDHR (UniProt Q6L8Q7)”, -0.138.
In the case of “PDXDC1_Q6P996_491_LPVLCCTLQLR (UniProt Q6P996)” it was 0.0445.
“PDS5A_Q29RF7_327_DSDLATQNRPLWQCFLGR (UniProt Q29RF7)”: the “probe-labelled cysteine peptide fold change” value is 0.0727.
In the case of “PDLIM2_Q96JY6_334_GHFWVGDELYCEK (UniProt Q96JY6)” it was 0.139; in that of “PDP1_Q9P0J1_132_SAATCLQTR (UniProt Q9P0J1)”, -0.0304.
The result for “PDLIM1_O00151_45_AALANLCIGDVITAIDGENTSNMTHLEAQNR (UniProt O00151)” reads 0.0121; that for “PCYT1A_P49585_5_MDAQCSAK (UniProt P49585)”, -0.181.
In the case of “PBRM1_Q86U86_1228_EVFLSNLEETCPMTCILGK (UniProt Q86U86)” it was -0.179.
